Data from PMC12445521.
These are yes or no findings as the source states them, for the method shown. In cells and extracts the contact can be indirect.

Assays:
[1] = molecular target: GFP-tagged PEDV E protein (in IPEC-J2) (porcine epidemic diarrhea virus (PEDV), strain AH2012/12)
[2] = molecular target: GFP-tagged PEDV N protein (in IPEC-J2) (porcine epidemic diarrhea virus (PEDV), strain AH2012/12)
[3] = molecular target: GFP-tagged PEDV S protein (in IPEC-J2) (porcine epidemic diarrhea virus (PEDV), strain AH2012/12)

Measured: binding

B1: endogenous porcine AurA (enzyme, UniProt A5GFW1 1-402)
chain: MDKCKENCISGLKTTVPPGDGPKRVPVTQHFPAQHLPSANSGQAQRVLCPSNSSQRLPSHTQKLVSSHKPVQNLKQKQSQATSGPRPVSRPLSNTQQSEQPQPAAPGNNPEKEAASKQKNEESKKRQWALEDFEIGRPLGKGKFGNVYLAREKQSKFILALKVLFKTQLEKAGVEHQLRREVEIQSHLRHPNILRLYGYFHDATRVYLILEYAPLGAVYRELQKLSKFDEQRTATYITELANALSYCHSKRVIHRDIKPENLLLGSAGELKIADFGWSVHAPSSRRTTLCGTLDYLPPEMIEGRMHDEKVDLWSLGVLCYEFLVGKPPFEANTYQETYKRISRVEFTFPDFVPEGARDLISRLLKHNPSHRPTLKEVLEHPWITANSKPASSHKKESTSKQP
no binding: all assays above
